# Source: the supplement of paper PMC10735217
# Counter-ions that a name gives are not always drawn. Some of the results follow. This data set is noisy: repeats of one test often differ as much as different tests do.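 In a drug-repurposing library screen, luminescence reads luciferase driven by eight TEAD-binding elements, stably integrated into human kidney-derived cells. Compounds scoring over five robust Z scores above the plate mean are called hits.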
# System: HEK293A TEAD-LUC reporter
# Assay: TEAD-luciferase reporter activity (YAP activation), robust Z score vs plate; higher = stronger YAP/TEAD activation
# Settings: 24 h
SMILES,TEAD-luciferase reporter activity (compound concentration: 200 nM),TEAD-luciferase reporter activity (compound concentration: 2 uM),TEAD-luciferase reporter activity (compound concentration: 10 uM)
CCN(CC)CCCN(c1ccccc1)C1Cc2ccccc2C1OC (centres undefined) [Moxaprindine],inactive: -1.55,inactive: 0.0534,inactive: 1.49
CN(C(=O)CN(C(=O)CNC(=O)Nc1cccc(CC(=O)O)c1)c1ccccc1)c1ccccc1,inactive: -1.24,inactive: -0.568,inactive: -0.446
COCc1c[n+]([O-])c(C)cn1,inactive: -1.39,inactive: -0.107,inactive: -2.04
COC(=O)Nc1c(N)nc(-c2nn(Cc3ccccc3F)c3ncccc23)nc1N,inactive: -1.72,inactive: 1.22,inactive: 2.22
CCn1cc(C(=O)O)c(=O)c2cc(F)c(-n3cccc3)cc21 [Irloxacin],inactive: -0.97,inactive: -2.03,inactive: 0.698
CC(=O)N1CCN(C(=O)c2cnc3cc(C)nn3c2)CC1,inactive: -1.63,,inactive: -1.02
C[C@H]1CC(=N)N[C@@H]2[C@H](Cl)[C@@H]21,inactive: -0.868,inactive: -0.0603,inactive: -1.83
O=C(NO)c1cccnc1 [Heparit],inactive: -0.69,inactive: -0.908,inactive: -0.185
CNC1C(O)C(OC2C(N)CC(N)C(OC3OC([C@H](C)N)CCC3N)C2O)OCC1(C)O (some centres undefined),inactive: -1.2,,inactive: -0.922
FC(F)(F)C(F)(F)C(F)(F)C(F)(F)C(F)(F)C(F)(F)F [perflexane],inactive: 3.87,inactive: 1.4,inactive: 0.166
Cc1nc(C(=O)N2CCOC3(CCN(CCc4ccc(CCOCCC(=O)N(CCNCCc5ccc(O)c6c5OCC(=O)N6)C5CCCCCC5)cc4)CC3)C2)cs1,inactive: 0.0931,inactive: 0.0358,inactive: -0.544
NC(=O)OC[C@@H]1[C@H](NC(=O)/C(=N\OCC(=O)[O-])c2csc(N)n2)C(=O)N1S(=O)(=O)[O-] [Carumonam disodium salt],active: 6.66,,inactive: 4.33
NC(=O)OC[C@@H]1[C@H](NC(=O)/C(=N\OCC(=O)[O-])c2csc(N)n2)C(=O)N1S(=O)(=O)[O-] [carumonam],,inactive: -0.324,
O=C1COCC2=C1C(c1ccc(F)c(I)c1)C1=C(COCC1=O)N2,inactive: -0.67,inactive: -1.12,inactive: 2.63
CCCCc1nc2ccc(NC(=O)NC3CCCCC3)cc2n1Cc1ccc(-c2ccccc2C(=O)O)cc1,inactive: -2.68,inactive: 0.725,inactive: 0.763
Nc1nc(=O)n([C@H]2CC[C@@H](CO)O2)cc1F,inactive: -0.443,inactive: -1.7,inactive: -1.56
CCOC(=O)[C@H](CCc1ccccc1)N[C@H]1CCCN2CCC[C@@H](C(=O)O)N2C1=O [cilazapril],inactive: -0.331,inactive: 0.128,inactive: 0.427
O=c1oc2cc(O)ccc2c(Cc2ccc(OCCN3CCCCC3)cc2)c1-c1ccccc1,inactive: -1.59,inactive: -0.925,inactive: 0.171
Cc1cc2c(F)c(Oc3ncnn4cc(OC[C@@H](C)O)c(C)c34)ccc2[nH]1 [Brivanib],inactive: -1.44,inactive: -2.43,inactive: -1.25

# Part of the list above, with tabs:
SMILES	TEAD-luciferase reporter activity (compound concentration: 200 nM)	TEAD-luciferase reporter activity (compound concentration: 2 uM)	TEAD-luciferase reporter activity (compound concentration: 10 uM)
O=C(NO)c1cccnc1 [Heparit]	inactive: -0.69	inactive: -0.908	inactive: -0.185
CNC1C(O)C(OC2C(N)CC(N)C(OC3OC([C@H](C)N)CCC3N)C2O)OCC1(C)O (some centres undefined)	inactive: -1.2		inactive: -0.922
FC(F)(F)C(F)(F)C(F)(F)C(F)(F)C(F)(F)C(F)(F)F [perflexane]	inactive: 3.87	inactive: 1.4	inactive: 0.166
Cc1nc(C(=O)N2CCOC3(CCN(CCc4ccc(CCOCCC(=O)N(CCNCCc5ccc(O)c6c5OCC(=O)N6)C5CCCCCC5)cc4)CC3)C2)cs1	inactive: 0.0931	inactive: 0.0358	inactive: -0.544

# More results follow:

SMILES,TEAD-luciferase reporter activity (compound concentration: 200 nM),TEAD-luciferase reporter activity (compound concentration: 2 uM),TEAD-luciferase reporter activity (compound concentration: 10 uM)
O=C(O)CNC(=O)C(CS)Cc1ccccc1 (centres undefined) [thiorphan],,inactive: 0.63,
O=C(O)CNC(=O)C(CS)Cc1ccccc1 (centres undefined),inactive: -0.396,,inactive: -1.06
"CC1(C)OC(=O)NC1=O [5,5-Dimethyloxazolidine-2,4-dione]",inactive: 0.203,,inactive: 2.98
CC1(C)OC(=O)NC1=O,,inactive: -0.777,
CCC(C)NCC(O)COc1ccccc1C(C)CC (centres undefined),inactive: -1.96,inactive: -0.17,inactive: -0.0223
Cc1ccc(C(=O)OCCn2ccnc2)cc1,inactive: 0.627,inactive: 1.14,inactive: -0.661
COc1ccc(/C=C/C(=O)Nc2cccc3ccccc23)cc1OC,inactive: -0.105,inactive: -1.11,inactive: 0.7
NS(=O)(=O)c1ccc(NCc2ccccc2)cc1,inactive: -1.23,inactive: -0.715,inactive: 0.95
CC(CO)(CO)NCc1cc2c3ccccc3ccc2c2ccccc12,inactive: -0.288,inactive: -0.31,inactive: 1.04
CC(C)(C)c1ccc(S(=O)(=O)Nc2ccc(Cl)cc2C(=O)c2cc[n+]([O-])cc2)cc1 [Vercirnon sodium],inactive: -1.08,inactive: -1.44,inactive: -0.722
CN1Cc2c(Cl)cc(Cl)cc2C(c2cccc(S(=O)(=O)NCCOCCOCCNC(=O)NCCCCNC(=O)NCCOCCOCCNS(=O)(=O)c3cccc(C4CN(C)Cc5c(Cl)cc(Cl)cc54)c3)c2)C1 (centres undefined) [Tenapanor],inactive: -1.9,inactive: -0.212,inactive: -0.577
FC(F)(F)C(Cl)Br (centres undefined),inactive: -0.546,,inactive: -0.363
FC(F)(F)C(Cl)Br (centres undefined) [Halothane],,inactive: -0.4,
CC1(C)SC2C(NC(=O)C(N)c3ccccc3)C(=O)N2C1C(=O)O (centres undefined) [ampicillin benzathine],inactive: -0.832,inactive: -0.696,inactive: -1.14
COc1cc(C(=O)C(=O)N2CCCC[C@H]2C(=O)OC(CCCc2ccccc2)CCCc2cccnc2)cc(OC)c1OC (some centres undefined),inactive: -0.535,inactive: -0.321,inactive: -1.47
CC(C(=O)O)c1ccc(C(=O)c2ccco2)cc1 (centres undefined) [Furprofen],inactive: -1.66,inactive: -2.1,inactive: -0.434
Oc1cccc(Nc2ncc(F)c(Nc3cccc(O)c3)n2)c1,inactive: -1.29,inactive: -2.16,inactive: -0.508
CCCc1c2c(cc3c(=O)cc(C(=O)OCC)oc13)CCCC2,inactive: -1.91,inactive: -1.23,inactive: 0.794
[N-]=[N+]=N[C@]1(CO)O[C@@H](n2ccc(N)nc2=O)[C@@H](F)[C@@H]1O [Azvudine],inactive: 0.63,inactive: -0.885,inactive: -0.591

SMILES,TEAD-luciferase reporter activity (compound concentration: 200 nM),TEAD-luciferase reporter activity (compound concentration: 2 uM),TEAD-luciferase reporter activity (compound concentration: 10 uM)
CC(C)Cn1cnc2c1c(=O)n(C)c(=O)n2C [Isbufylline],inactive: 4.16,inactive: 0.807,inactive: 2.97
Cc1[nH]c(=O)c(C#N)cc1-c1ccc2c(n1)N(C)C(=O)CO2,inactive: -1.27,inactive: -0.626,active: 5.84
Cc1ccc(C(=O)N2CCC(n3c(=O)[nH]c4ccccc43)CC2)cc1,inactive: -0.39,,inactive: 1.07
CC(C)(Sc1cc(C(C)(C)C)c(O)c(C(C)(C)C)c1)Sc1cc(C(C)(C)C)c(OCCCC(=O)O)c(C(C)(C)C)c1,inactive: -1.24,inactive: 0.504,inactive: 0.88
CCCCCCCCCC(=O)OC[C@H]1O[C@H](O[C@H]2O[C@H](COC(=O)CCCCCCCCC)[C@@H](O)[C@H](O)[C@H]2O)[C@H](O)[C@@H](O)[C@@H]1O,inactive: -0.395,inactive: -0.122,inactive: -0.303
CSc1nc2cc(Cl)c(Oc3cccc(Cl)c3Cl)cc2[nH]1 [triclabendazole],,inactive: -1.41,
"Cc1cc2nc3c(=O)[nH]c(=O)nc-3n(C[C@@H](O)[C@@H](O)[C@@H](O)CO)c2cc1C [riboflavin (0.1%), Avedro]",inactive: -3.18,,inactive: -1.3
Cc1cc2nc3c(=O)[nH]c(=O)nc-3n(C[C@@H](O)[C@@H](O)[C@@H](O)CO)c2cc1C [riboflavin (0.1%)],,inactive: -1.59,
CCN1CCCC12Cc1ccccc1CN(C(C)=O)C2 (centres undefined),inactive: -1.04,,inactive: 0.513
CCCCCCOC(=O)CCC(=O)CN [Aminolevulinic acid hexyl ester],inactive: 0.662,inactive: -0.508,inactive: -0.784
CCc1nc(C)cc(=O)n1CCOc1ccc(CC2SC(=O)NC2=O)cc1 (centres undefined),inactive: -0.767,inactive: -1.78,inactive: -0.611
"Cc1nc2n(c(=O)c1CCN1CCC(c3noc4cc(F)ccc34)CC1)CCCC2O (centres undefined) [paliperidone ER, Torrent Pharmaceuticals]",inactive: -1.79,inactive: -0.613,inactive: 0.948
O=C(Nc1ccc(C(=O)N2C[C@H]3COCCN3Cc3ccccc32)c(Cl)c1)c1ccccc1-c1ccccc1,inactive: 1.11,inactive: -0.0361,inactive: -0.898
O=C1NC2(CCN(Cc3ccccc3)CC2)Oc2ccccc21,inactive: -1.63,,inactive: -0.255
COc1ccc(C(C(N)=O)N2CCCCC2)cc1 (centres undefined),inactive: 0.375,inactive: -2.35,inactive: -0.429
CC(=O)[C@H]1CC=C2[C@@H]3CC[C@H]4C[C@H](O)CC[C@]4(C)[C@H]3CC[C@@]21C,inactive: -0.114,inactive: 0.541,inactive: 1.85
C/C(=C\C(=O)CC(C)C(=O)O)[C@H]1C[C@H](O)[C@@]2(C)C3=C(C(=O)C[C@]12C)[C@@]1(C)CCC(=O)C(C)(C)[C@@H]1C[C@@H]3O (some centres undefined),inactive: -2.35,inactive: -0.459,inactive: -1.38
CN(C)C/C=C(/c1ccc(Br)cc1)c1cccnc1 [zimeldine hydrochloride],inactive: 0.0492,inactive: -0.888,inactive: -0.18
"CC1(C)[C@@H]2C[C@H]1[C@@](C)(O)[C@@H](O)C2 [2,3-cis/exo-Pinanediol]",inactive: -0.128,inactive: -0.131,inactive: -1.99
